Test results published in article PMC539060.

What follows are substances tested against T1, GLD-1 (C. elegans) (UniProt Q17339) (assay: two-hybrid; yeast two-hybrid; GLD-1 as bait in pAS1 (DNA binding), FOG-2 deletion constructs in pACTII (activation); 20 mM 3-amino-triazole; done in one direction only because FOG-2 auto-activates in pAS1).
T1 sequence: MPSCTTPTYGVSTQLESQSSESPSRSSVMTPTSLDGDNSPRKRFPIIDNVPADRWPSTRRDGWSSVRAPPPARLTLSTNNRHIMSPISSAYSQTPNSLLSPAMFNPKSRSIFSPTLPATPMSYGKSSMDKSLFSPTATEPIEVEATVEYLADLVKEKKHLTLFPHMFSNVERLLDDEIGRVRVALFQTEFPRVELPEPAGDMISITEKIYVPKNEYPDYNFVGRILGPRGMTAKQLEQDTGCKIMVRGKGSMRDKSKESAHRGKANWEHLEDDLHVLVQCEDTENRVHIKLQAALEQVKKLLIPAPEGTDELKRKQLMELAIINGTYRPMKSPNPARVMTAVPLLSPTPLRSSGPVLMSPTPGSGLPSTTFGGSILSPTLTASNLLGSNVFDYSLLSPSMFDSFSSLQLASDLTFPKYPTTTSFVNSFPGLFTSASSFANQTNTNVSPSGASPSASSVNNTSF

| Substance | binding |
| --- | --- |
| FTR-1 full-length (318 aa) (C. elegans) | no binding |
| FOG-2 C-terminal deletion of 76 aa (251 aa; essentially all of exon 4 removed) (C. elegans) (domain or fragment) | no binding |
| FOG-2 C-terminal deletion of 28 aa (299 aa) (C. elegans) (domain or fragment) | binds |
| FOG-2 C-terminal deletion of nine aa (318 aa) (C. elegans) (domain or fragment) | binds |
| FOG-2 C-terminal deletion of 64 aa (263 aa) (C. elegans) (domain or fragment) | no binding |
| FOG-2 full-length (327 aa) (from UniProt Q2YS43) | binds |

Results are given in words; binding and its absence hold for the method and conditions named. Binding calls can cover weak binding; strength is not graded here.
